Library screen at single concentrations

Sequences of proteins named here, by UniProt entry; tags and fusion partners are left off.
UniProt P9WFT3, whole entry: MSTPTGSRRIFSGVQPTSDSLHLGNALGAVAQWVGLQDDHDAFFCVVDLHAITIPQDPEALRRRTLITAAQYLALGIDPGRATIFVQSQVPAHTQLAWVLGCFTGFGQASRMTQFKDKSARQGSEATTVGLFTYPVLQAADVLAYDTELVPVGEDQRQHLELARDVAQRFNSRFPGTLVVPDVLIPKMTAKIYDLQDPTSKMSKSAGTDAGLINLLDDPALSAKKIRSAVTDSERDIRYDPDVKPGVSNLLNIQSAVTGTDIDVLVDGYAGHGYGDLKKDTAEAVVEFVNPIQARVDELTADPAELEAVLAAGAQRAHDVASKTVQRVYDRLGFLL

The values are deposited in ChEMBL (CHEMBL3988442, “University of Dundee, Small-Polar-MMV Screening Library” (2021)).

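Tryptophan-tRNA ligase, Mycobacterium tuberculosis (UniProt P9WFT3). Enzyme assay of tryptophanyl-tRNA synthetase; the read-out is not stated. Compounds at 10 µM. Higher most likely means stronger inhibition; the record gives no direction and few retests gave an IC50. Size under these conditions: about 65,000 compounds, about 64 of them at 50% or above in at least one test.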

Values are the deposited “Percent Effect”, in %.
The controls that fix the scale are not given in the record; negative values are as filed.
Compounds were drawn at random from those tested, without regard to their results.

CC(C)(O)CN1CCN(C(=O)c2cc(Cl)cc3cccnc23)CC1 gave -1.707%. O=C(NCCNc1cnccn1)NCC1CCS(=O)(=O)C1 (centres unmarked) read -1.5%. COCC1COCCC12CCN(C(=O)COc1ccccc1C)CC2 (centres unmarked) read -0.4149%. With CCNC(=O)[C@@H]1C[C@@H](NC(=O)Cc2ccccn2)CN1CCCSC the screen gave -3.536%. Cc1ccc(-c2noc(CN3CCOC(Cn4cncn4)C3)n2)cc1 (centres unmarked) gave 2.041%. For CCOc1ccc(CN2C(=O)CC3(CCCC3)C2=O)nc1 the result was 12.34%. COCCOCC(=O)NC(C#N)c1c(F)cccc1Cl (centres unmarked) read 0.9518%.

Cc1ncc2c(n1)CN(Cc1cccc3c1OCCO3)CC2 read 2.457%. Cc1nc(C)n(CC2CN(c3nnc(C)c(C)c3C#N)CCO2)n1 (centres unmarked) read -0.1572%. With O=C(CNc1cc2c(cc1Cl)OCCO2)NCC(F)(F)F the screen gave -0.4617%. CC(C)c1nn(C)c(N(C)C)c1CNC1CCOc2ccccc21 (centres unmarked) read -0.3589%. For CN(C)[C@@H]1CCN(C(=O)Cc2cccs2)[C@H]1Cc1cnn(C)c1 the result was 2.815%. With Cc1cc(C(=O)N2CCOC(c3nc(C(C)C)n[nH]3)C2)no1 (centres unmarked) the screen gave -3.241%. O=C(Cc1cccnc1)N1CCC2(CC1)CCN(C1CCOCC1)CC2 gave -3.775%.

For O=S(=O)(NC[C@H]1C[C@@H]2CCN1C[C@@H]2CN1CCOCC1)c1ccccc1 the result was -3.087%. With Cn1cc(C(=O)Nc2ccc3c(c2)CN(C(=O)c2ccco2)CC3)nn1 the screen gave -4.961%. CNC(=O)[C@@H]1CN(C(=O)CCOC)C[C@H]1c1ccnc(N2CCCC2)n1 read -4.651%. With Cc1cnn(CC(C)NCc2csc(-c3ccsc3)n2)c1 (centres unmarked) the screen gave -8.674%. For N#Cc1ccc(NC(=O)C2CSCN2)cc1 (centres unmarked) the result was -0.712%. For O=C(Cc1ccccc1O)NC1CCCN(c2ccccc2F)C1=O (centres unmarked) the result was -2.295%. O=C(Nc1cccc2ccccc12)N1CCC(N2CCSCC2)CC1 gave -0.3276%.

Result for CN(C)CC1CN(Cc2nc(-c3cccnc3)no2)CCO1 (centres unmarked) was -7.615%. With Cc1nn(C)c(C)c1CC(=O)N1CCCC1Cn1cccn1 (centres unmarked) the screen gave 0.4519%. For Cc1cc(C)n(CC2CCCN2C(=O)c2ccc(NC3CC3)nc2)n1 (centres unmarked) the result was 21.15%. O=C(CCc1ccc2c(c1)OCO2)N1CCCC(n2cccn2)C1 (centres unmarked) gave 1.221%. With Cc1oncc1C(=O)N1CCOCC2(CCN(c3ccccn3)C2)C1 (centres unmarked) the screen gave -0.07639%. For Cc1ncc(C(=O)N2CCCC(n3cccn3)C2)s1 (centres unmarked) the result was 0.4259%. Cn1cnc(S(=O)(=O)N2C[C@H]3CN(Cc4ccccn4)C[C@H]3C2)c1 read 1.339%.

O=C(NCCN1CCCCC1)c1ccn(-c2ccc(F)cc2)n1 read -3.672%. For COC(=O)c1ccoc1CN(C)Cc1ccccc1 the result was 2.884%. Result for COc1cc2nc(NCCNS(C)(=O)=O)cc(C)c2cc1OC was -9.804%. With CCC(=O)N1CCCN(Cc2cc(F)cc(Br)c2)CC1 the screen gave 4.068%. Result for COCCN1CCC(Cc2cncc(-c3ccc(C(=O)O)cc3)n2)C1 (centres unmarked) was 1.421%. CCC(=O)NC(CC)c1ccccc1C (centres unmarked) read -0.6056%. With CNc1ncc(CN(C)c2ncnc3onc(C)c23)cn1 the screen gave -1.583%.

Cc1noc(C)c1CN1CCN(c2ccnc(-c3ccccc3)n2)CC1 gave 3.172%. Cc1ccc(CN2CCCC3(CCN(S(=O)(=O)N(C)C)C3)C2)o1 (centres unmarked) gave -2.115%. With Cc1cccc(CNC(=O)CC2CCN(Cc3ccccn3)CC2)n1 the screen gave -0.4933%. COc1ccc(OCc2cc(C(=O)N3CCCCO3)n[nH]2)c(Cl)c1 gave 2.157%. Result for CCC(C(=O)NCC1=CCN(C)CC1)c1ccccc1 (centres unmarked) was -2.991%. With Cc1cc(C2CCCN(CCc3ccccn3)C2)n[nH]1 (centres unmarked) the screen gave 0.3934%. With O=C(NCc1cccc(F)c1)NCC(O)c1cccc(F)c1 (centres unmarked) the screen gave 29.01%.

COc1ccc(CCNC(=O)C2CCC(Cn3cnnn3)CC2)cc1 (centres unmarked) gave -2.01%. CN1CCC(N2CCC[C@H]2c2nc(-c3cncnc3N)no2)CC1 read -1.29%. With COc1ccc(CNCCc2cc(F)cc3c2OCOC3)c(OC)c1 the screen gave -1.528%. For CC(=O)N1CCN(CCNS(=O)(=O)c2cc(F)cc(F)c2)CC1 the result was -1.027%. For CCc1noc(CNc2cc3c(cc2Cl)OCCO3)n1 the result was -1.145%.

The last 2 entries again:

* CC(=O)N1CCN(CCNS(=O)(=O)c2cc(F)cc(F)c2)CC1 : -1.027%
* CCc1noc(CNc2cc3c(cc2Cl)OCCO3)n1 : -1.145%